Screening data, single-dose tests

Data taken from ChEMBL document CHEMBL3988442, “University of Dundee, Small-Polar-MMV Screening Library” (2021).

Each number is a percent effect as filed. The controls that fix the scale are not given in the record; negative values are as filed. The compounds are a random part of those screened.

A: 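Assay of Toxoplasma gondii numbers, read through their beta-galactosidase reporter with a colour substrate. Compounds at 10 µM. Higher reads as fewer parasites (inferred from which compounds were picked for retests). Of about 67,000 compounds tested this way, about 260 (0.38%) reached 50% or more in at least one test.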
B: 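Whole-parasite assay of Trypanosoma brucei over 72 hours; the read-out is not stated. Compounds at 30 µM. The record gives no direction; compounds that gave an IC50 in retests scored well above the rest, so higher reads as stronger inhibition. Values scatter widely below zero; nearly all retest evidence comes from the higher of the two concentrations used. About 64,000 compounds were tested under these conditions; 1.5% (about 940) showed 50% or more at least once.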

Cc1ccc(CNC(=O)N2CCN(C(C)c3cccnc3)CC2)cn1 (stereo not given) read A: 7.39%; B: -2.853%. Result for COCCOCC(=O)Nc1cc(C)ccc1F was A: 9.315%; B: -2.054%. [H][C@@]12COC[C@]1(COc1ccc(C#N)cn1)CN(Cc1c(C)noc1C)C2 read A: 4.216%; B: 3.119%. For Cc1ccnc(OCC(=O)N2CCC(C(N)=O)CC2)n1 the result was A: 0.4379%; B: -38.05%. Cn1cccc1C(=O)N1CCC(O)(CN2CCc3ccccc3C2)C1 (stereo not given) gave A: -4.165%; B: 16.41%. O=S(=O)(c1ccc(-c2cnco2)cc1)N1CCCC(O)(CO)CC1 (stereo not given) read A: 18.69%; B: -50.67%.

Result for CC(=O)N1CC2(CCN(c3ccc4ccccc4n3)CC2)CC1C(=O)O (stereo not given) was A: -16.39%; B: 20.43%. With Cc1noc(C(C)C)c1C(=O)NCC(c1ccsc1)N(C)C (stereo not given) the screen gave B: -40.19%. For Cc1nn(C)c(Cl)c1C1CCCN1C(=O)c1cc[nH]n1 (stereo not given) the result was A: 0.4021%; B: 18%. With COc1ccc(C[C@H]2CN(C(=O)c3ccn(C)n3)CC[C@H]2OC)cc1 the screen gave A: -30.44%; B: 6.755%. Result for O=c1[nH][nH]cc1-c1ccnc(NCCc2cccnc2)n1 was A: 18.93%; B: -20.7%. O=C(O)C(F)(F)F.[H][C@@]12COC[C@]1([H])[C@@H](OCC(=O)N(C)C)CN2Cc1ccc(CC)o1 read A: 16.74%; B: -38.69%.

For Cn1cc(CNC(=O)C2CCCN(Cc3cccc(F)c3)C2)cn1 (stereo not given) the result was A: 0.05359%; B: -35.47%. With O=C(CN1CCC(c2nnc(C(F)(F)F)o2)CC1)Nc1cccc(Cl)c1 the screen gave A: -7.65%; B: -6.449%. Result for CCCC(=O)N(CCCN1CCOCC1)c1nc2c(C)ccc(Cl)c2s1.Cl was A: 33.59%; B: 71.42%. Result for O=C(O)C(F)(F)F.[H][C@@]12CCN(c3cccnc3)C[C@]1([H])CN(C(=O)c1ccncc1)C2 was A: -2.182%; B: 0.7432%. Result for Cc1cccnc1CSCCCNS(C)(=O)=O was A: -4.746%; B: -32.63%. With O=C(O)C(F)(F)F.O=C(O)C(F)(F)F.[H][C@@]12CCN(Cc3cccnc3)[C@]1([H])CC[C@H](C(=O)NCc1ccco1)O2 the screen gave A: 5.967%; B: -31.26%.

Cc1nonc1C1CCCN1C(=O)c1cc2n(n1)CCCNC2 (stereo not given) gave A: -10.37%; B: -56.31%. CCN(CC)C1CCN(C(=O)NCc2cccc(-n3cccn3)c2)C1 (stereo not given) gave A: 6.384%; B: 1.756%. CN(C)C(=O)C1CCN(C2CCN(CC3CC3)CC2)CC1.O=C(O)C(F)(F)F.O=C(O)C(F)(F)F read A: 9.383%; B: -10.13%. CCOc1ccc(N(C)S(=O)(=O)c2c[nH]c(C(C)C)n2)cc1 gave A: -14.29%; B: -19.18%. For CC(C)Cc1noc(CN2CCN(C(=O)c3ccccc3F)CC2)n1 the result was A: 8.565%; B: -8.148%. Result for CCn1cc(CN2CCCn3nc(CNC(=O)N(C)C)cc3C2)cn1 was A: 9.976%; B: -25.08%.

With CC(C)[C@H](NC(=O)NC1CCS(=O)(=O)C1)C(=O)NCc1ccccc1Cl (stereo not given in full) the screen gave A: 2.75%; B: -13.11%. CN1CCCCC1CCC(=O)NCCSc1cnn[nH]1 (stereo not given) gave A: -5.245%; B: -0.341%. Result for Cc1ccc(NCCCNC(=O)NCC2CCS(=O)(=O)C2)nc1 (stereo not given) was A: 4.071%; B: 12.82%. Result for OC(CN(Cc1ccccc1)Cc1ccccn1)c1cccs1 (stereo not given) was A: -6.606%; B: -21.3%. CC(N(C)Cc1nc2c(cnn2C)c(=O)[nH]1)C(C)(C)C (stereo not given) gave A: 1.185%; B: -44.4%. Cc1nn(C)c(C)c1CN(Cc1cccn1-c1ccccn1)C(C)C gave A: 12.7%; B: -27.43%.

With NC(=O)C(NC(=O)CSCc1ccc(Cl)s1)c1ccccc1 (stereo not given) the screen gave A: -0.1129%; B: -39.49%. Result for Cc1cc(-c2cnc(NCc3cccnc3)nc2C(C)C)on1 was A: 3.05%; B: 23.42%. Result for Cc1ccccc1NC(=O)NCCn1nc(C(F)(F)F)n(C)c1=O was A: -9.819%; B: 10.97%. Result for O=C(NCCn1ccc(-c2ccncc2)n1)C1CC1 was A: -6.64%; B: -7.553%. Result for O=C(c1ccon1)N1CCN(c2ccncc2Cl)CC1 was A: 0%; B: 5.551%. For Cn1cc(N2CC3(CCN(Cc4ccsc4)CC3)OCC2=O)cn1.O=C(O)C(F)(F)F the result was A: -34.42%; B: -12.26%.

O=C(NCc1nnc2n1CCCC2)N(Cc1ccccc1F)C1CC1 read A: -3.001%; B: -8.855%.

2 of the entries, repeated:

{"smiles": "O=C(O)C(F)(F)F.[H][C@@]12CCN(c3cccnc3)C[C@]1([H])CN(C(=O)c1ccncc1)C2", "A": -2.182, "B": 0.7432}
{"smiles": "CC(C)[C@H](NC(=O)NC1CCS(=O)(=O)C1)C(=O)NCc1ccccc1Cl", "stereo": "stereo not given in full", "A": 2.75, "B": -13.11}